# Results published in the supplement of paper PMC8728848.
# Some of the results follow.
# B1: Blon2355mut (Bifidobacterium longum) (protein)
# chain: MVQEPTLEWHVIPEPTNVEPLVGTCSLPLSGTVVEQRGADDAEAVFARQLVDDIKRVCGGRWQVASGEVQREVTLRTSPSLDDWSYVLEVSPDGVVITGSGFEGVRDGVQTLRQIIRQIGLTIPCMVIRDRPAFSTRGYYLDVTRGRVPSMAWLKSWVDRLCFYKYNQFQLYIEHTFQFNGLSEVWRGADPLTSSDILELDSYCAARGIELVPSVSTFGHHYTALRTRQLRDLGEFPEDADRPFSLIERMTHHTLNITDERSYEFSTSLIDELMPLFRSRKFNICANETFDLGKGRSKQESAKRGVGAMYADFVERLCRHVDDRGHDVMVWADVALEHPEIIDTLPKNITWLNWQYEPNVDDGTTAALADAGATQMVCPAVWCWNALIPRIDDAWNNITRMARHGRAHDVSGMLVTDWGDFGHVNDPRMSVPGMIFGAQQSWNPDAELSEVDMLSRISTIEYGDHTGSVVGALRGASAKGGFSWSDLVTYLELDDGRGGCNTEIVRVMGCLEAYRNDLPQSGQARLADARVSMLRTLRDSILAGRELNGKLDDAAKDITQLLRVAGDPSSAAVWSLAIDGQRLLNRVGLALLAAHGVVRQDEAGIDAAKLADELECWTEQYSRLWHEVSRQSELARIQHVVWRAADVLRSI
# Tests used:
# Assay in all cases: glycan array binding signal (z-score within array); higher = stronger binding
# Settings in all cases: glycan notation: IUPAC condensed, linker removed
# [1] = target: Gal(a1-3)Gal(b1-4)GlcNAc(b1-2)Man(a1-3)[Gal(a1-3)Gal(b1-4)GlcNAc(b1-2)Man(a1-6)]Man(b1-4)GlcNAc(b1-4)GlcNAc
# Summary of the method: (§1)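 Glycan array data came from 3228 arrays in the Consortium for Functional Glycomics database, and only arrays with an available protein sequence were kept. Glycan names were put into IUPAC-condensed notation, and columns mapping to the same glycan were averaged. The binding signal is a within-array Z-score, averaged across arrays of one protein sequence run at different concentrations or buffers and across linkers. A negative Z-score can be read as non-binding.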
# [2] = target: Gal(a1-3)Gal(b1-4)GlcNAc(b1-3)GalNAc
# Summary of the method: as §1
# [3] = target: Gal(a1-3)Gal(b1-4)GlcNAc(b1-6)GalNAc
# Summary of the method: as §1
# [4] = target: Gal(a1-3)Gal(b1-4)[Fuc(a1-3)]GlcNAc
# Summary of the method: as §1
# [5] = target: Gal(a1-3)Gal(b1-4)[Fuc(a1-3)]GlcNAc(b1-2)Man(a1-3)[Gal(a1-3)Gal(b1-4)[Fuc(a1-3)]GlcNAc(b1-2)Man(a1-6)]Man(b1-4)GlcNAc(b1-4)GlcNAc
# Summary of the method: as §1
# [6] = target: Gal(a1-3)GalNAc
# Summary of the method: as §1
# [7] = target: Gal(a1-3)[Gal(a1-4)]Gal(b1-4)GlcNAc
# Summary of the method: as §1
# [8] = target: Gal(a1-4)Gal(b1-3)GlcNAc(b1-2)Man(a1-3)[Gal(a1-4)Gal(b1-3)GlcNAc(b1-2)Man(a1-6)]Man(b1-4)GlcNAc(b1-4)GlcNAc
# Summary of the method: as §1
# [9] = target: Gal(a1-4)Gal(b1-4)Glc
# Summary of the method: as §1
# [10] = target: Gal(a1-4)Gal(b1-4)GlcNAc
# Summary of the method: as §1
# [11] = target: Gal(a1-4)Gal(b1-4)GlcNAc(b1-2)Man(a1-3)[Gal(a1-4)Gal(b1-4)GlcNAc(b1-2)Man(a1-6)]Man(b1-4)GlcNAc(b1-4)GlcNAc
# Summary of the method: as §1
# [12] = target: Gal(a1-4)Gal(b1-4)GlcNAc(b1-3)Gal(b1-4)Glc
# Summary of the method: as §1
# [13] = target: Gal(a1-4)GlcNAc
# Summary of the method: as §1
# [14] = target: Gal(a1-6)Glc
# Summary of the method: as §1
# [15] = target: Gal(b1-2)Gal
# Summary of the method: as §1
# [16] = target: Gal(b1-3)Gal
# Summary of the method: as §1
# [17] = target: Gal(b1-3)Gal(b1-4)GlcNAc
# Summary of the method: as §1
# [18] = target: Gal(b1-3)GalNAc
# Summary of the method: as §1
# [19] = target: Gal(b1-3)GalNAc(a1-3)[Fuc(a1-2)]Gal(b1-4)Glc
# Summary of the method: as §1
# [20] = target: Gal(b1-3)GalNAc(a1-3)[Fuc(a1-2)]Gal(b1-4)GlcNAc
# Summary of the method: as §1
# [21] = target: Gal(b1-3)GalNAc(b1-3)Gal
# Summary of the method: as §1
# [22] = target: Gal(b1-3)GalNAc(b1-3)Gal(a1-4)Gal(b1-4)Glc
# Summary of the method: as §1
# [23] = target: Gal(b1-3)GalNAc(b1-4)Gal(b1-4)Glc
# Summary of the method: as §1
# [24] = target: Gal(b1-3)GalNAc(b1-4)[Neu5Ac(a2-3)]Gal(b1-4)Glc
# Summary of the method: as §1
# [25] = target: Gal(b1-3)GlcNAc
# Summary of the method: as §1
# [26] = target: Gal(b1-3)GlcNAc(a1-3)Gal(b1-4)GlcNAc
# Summary of the method: as §1
# [27] = target: Gal(b1-3)GlcNAc(a1-6)Gal(b1-4)GlcNAc
# Summary of the method: as §1
# [28] = target: Gal(b1-3)GlcNAc(b1-2)Man
# Summary of the method: as §1
# [29] = target: Gal(b1-3)GlcNAc(b1-2)Man(a1-3)[Gal(b1-3)GlcNAc(b1-2)Man(a1-6)]Man(b1-4)GlcNAc(b1-4)GlcNAc
# Summary of the method: as §1
# [30] = target: Gal(b1-3)GlcNAc(b1-2)Man(a1-3)[Gal(b1-3)GlcNAc(b1-2)Man(a1-6)]Man(b1-4)GlcNAc(b1-4)[Fuc(a1-6)]GlcNAc
# Summary of the method: as §1
binder,measurement,setting,value
B1,glycan array binding signal (z-score),[1],-0.325
same,glycan array binding signal (z-score),[2],-0.289
same,glycan array binding signal (z-score),[3],-0.298
same,glycan array binding signal (z-score),[4],-0.344
same,glycan array binding signal (z-score),[5],1.73
same,glycan array binding signal (z-score),[6],0.527
same,glycan array binding signal (z-score),[7],3.31
same,glycan array binding signal (z-score),[8],-0.431
same,glycan array binding signal (z-score),[9],2.13
same,glycan array binding signal (z-score),[10],1.36
same,glycan array binding signal (z-score),[11],-1.08
same,glycan array binding signal (z-score),[12],-0.527
same,glycan array binding signal (z-score),[13],-0.832
same,glycan array binding signal (z-score),[14],-0.671
same,glycan array binding signal (z-score),[15],0.594
same,glycan array binding signal (z-score),[16],-0.445
same,glycan array binding signal (z-score),[17],1.46
same,glycan array binding signal (z-score),[18],0.03
same,glycan array binding signal (z-score),[19],-1.53
same,glycan array binding signal (z-score),[20],-1.37
same,glycan array binding signal (z-score),[21],0.657
same,glycan array binding signal (z-score),[22],0.808
same,glycan array binding signal (z-score),[23],0.247
same,glycan array binding signal (z-score),[24],1.42
same,glycan array binding signal (z-score),[25],-0.022
same,glycan array binding signal (z-score),[26],-1.09
same,glycan array binding signal (z-score),[27],-0.504
same,glycan array binding signal (z-score),[28],0.043
same,glycan array binding signal (z-score),[29],0.075
same,glycan array binding signal (z-score),[30],-0.089

# For convenience, some entries already given.
binder,measurement,setting,value
B1,glycan array binding signal (z-score),[17],1.46
same,glycan array binding signal (z-score),[18],0.03
